# Where a name gives a salt, the structure may show the parent alone. The list shows a part of the results. Single values are uncertain, as repeats are few or missing.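 The strains were three CDC resistance-bank clinical C. auris isolates from clades III, IV and I, cultured in RPMI-1640 at 35°C. Growth was background-corrected OD600 versus vehicle-only wells on the same plate. A hit needed >50% inhibition in two or more strains plus a plate-corrected B-score exceeding 0.1.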
# Legend:
# Assay in all cases: growth relative to vehicle control (OD600 ratio) (fraction); higher = less inhibition
# Settings in all cases: 24 h
# C. auris AR-384 = test system: C. auris AR-384
# C. auris AR-386 = test system: C. auris AR-386
# C. auris AR-387 = test system: C. auris AR-387
Compound,growth (C. auris AR-384; 1 µM),growth (C. auris AR-384; 10 µM),growth (C. auris AR-386; 1 µM),growth (C. auris AR-386; 10 µM),growth (C. auris AR-387; 1 µM),growth (C. auris AR-387; 10 µM)
CC(C)(O)CNc1nc(Nc2ccnc(C(F)(F)F)c2)nc(-c2cccc(C(F)(F)F)n2)n1 [Enasidenib (AG-221)],1.39,1.38,1.37,1.5,1.53,1.5
Nc1ccc2cc3ccc(N)cc3nc2c1 [Proflavine Hemisulfate],1.23,1.31,1.15,1.16,1.01,1.03
CC(C)(C)CC(C)(C)c1ccc(OCCOCC[N+](C)(C)Cc2ccccc2)cc1 [Benzethonium Chloride],0.97,0.72,0.67,0.09,0.74,0.82
Cc1cc(=O)[nH]c(=S)[nH]1 [Methylthiouracil],1.05,0.74,0.97,0.97,0.85,0.92
CCN(CC)CCOC(=O)C1(C2CCCCC2)CCCCC1 [Dicyclomine HCl],1.13,1.36,1.1,1.21,0.78,1.26
CCOC(=O)O[C@]1(C(=O)OCCl)CC[C@H]2[C@@H]3CCC4=CC(=O)C=C[C@]4(C)[C@H]3[C@@H](O)C[C@@]21C [Loteprednol etabonate],1.01,1.13,1.26,1.19,1.08,1.11

# Reference: the supplement of paper PMC10470496
